Reference: PubChem BioAssay AID1259266 (Sanger Institute, 2017)

Purpose: 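Find knock-downs that kill LS123 cells or act with anchor drugs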 (primary screen)
System: LS123 human colorectal cancer cells
Knock-down reagent: siRNA pool against human genes
Conditions: anchor drugs BYL719 (1 µM), cetuximab (5 µg/ml) or trametinib (10 nM), each chosen to barely slow growth alone; DMSO vehicle as the drug-free arm
Detection: 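Viability relative to non-targeting control pools, replicate mean, with a robust z-score for knock-down alone and synergy scores for each anchor drug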
Direction: robust z-score, knock-down alone: higher = more cells surviving after knock-down
Call rule: 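Essential when the robust z-score of the knock-down alone is below -3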
Meaning of the calls: active = essential (knock-down alone cuts viability); inactive = no change
The deposit covers 794 reagents; shown is an unselected part. Over the whole deposit, 16 (2%) were called active. 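Calls reflect knock-down alone, not drug synergy; viability seems capped at 1 and z-scores at 0.585.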 Further read-outs or replicates are left out here. The record does not give: the amount of reagent, the time to read-out.

The opening 2 records, to show the layout:
| gene symbol | robust z-score, knock-down alone | activity call |
| --- | --- | --- |
| NR2F2 | -0.104 | inactive |
| TRPM7 | -0.253 | inactive |

Results, repeating the preview:
| gene symbol | robust z-score, knock-down alone | activity call |
| --- | --- | --- |
| NR2F2 | -0.104 | inactive |
| TRPM7 | -0.253 | inactive |
| CSNK1A1 | 0.128 | inactive |
| GRK1 | 0.585 | inactive |
| PIM2 | 0.418 | inactive |
| CRKL | 0.585 | inactive |
| MET | 0.585 | inactive |
| ZC3H11A | 0.32 | inactive |
| TBCK | 0.585 | inactive |
| NUCKS1 | 0.585 | inactive |
| PFKM | 0.585 | inactive |
| CKS1B | 0.215 | inactive |
| STK10 | 0.294 | inactive |
| INSR | 0.585 | inactive |
| RPS6KA5 | -0.941 | inactive |
| FLT3 | -1.15 | inactive |
| PHKA2 | -1.43 | inactive |
| EFNA5 | 0.585 | inactive |
| RPS6KA3 | 0.585 | inactive |
| TLK2 | 0.585 | inactive |
| SRP72 | 0.585 | inactive |
| SMAD2 | -0.655 | inactive |
| NPR2 | 0.29 | inactive |
| AMHR2 | 0.31 | inactive |
| EPHA7 | -1.27 | inactive |
| LTK | -0.195 | inactive |
| PLK2 | 0.585 | inactive |
| CSNK1G1 | 0.00806 | inactive |
| PDGFRA | -1.27 | inactive |
| GRK6 | 0.585 | inactive |
| IGF2R | 0.585 | inactive |
| CKMT1B | -1.1 | inactive |
| BMPR2 | 0.0745 | inactive |
| MKNK2 | -0.335 | inactive |
| GCK | -3.54 | active |
| TNK1 | -0.392 | inactive |
| MASTL | 0.585 | inactive |
| GUCY2EP | 0.585 | inactive |
| BCKDK | 0.585 | inactive |
| DGKB | -2.09 | inactive |
| ROCK2 | 0.585 | inactive |
| PFKFB4 | 0.27 | inactive |
| MAP4K4 | 0.585 | inactive |
| PRKD3 | -1.06 | inactive |
| CHEK2 | 0.585 | inactive |
| ITSN1 | 0.17 | inactive |
| PIM1 | 0.585 | inactive |
| CDK5R1 | -0.893 | inactive |
| EPHA1 | 0.585 | inactive |
| AK1 | -1.12 | inactive |
